Results are given in words; binding and its absence hold for the method and conditions named. In cells and extracts the contact can be indirect. Sequences can lack the tags named with a protein.
Biological target: T1, GFP-tagged GASZ (mouse) (UniProt Q8VD46)
T1 sequence: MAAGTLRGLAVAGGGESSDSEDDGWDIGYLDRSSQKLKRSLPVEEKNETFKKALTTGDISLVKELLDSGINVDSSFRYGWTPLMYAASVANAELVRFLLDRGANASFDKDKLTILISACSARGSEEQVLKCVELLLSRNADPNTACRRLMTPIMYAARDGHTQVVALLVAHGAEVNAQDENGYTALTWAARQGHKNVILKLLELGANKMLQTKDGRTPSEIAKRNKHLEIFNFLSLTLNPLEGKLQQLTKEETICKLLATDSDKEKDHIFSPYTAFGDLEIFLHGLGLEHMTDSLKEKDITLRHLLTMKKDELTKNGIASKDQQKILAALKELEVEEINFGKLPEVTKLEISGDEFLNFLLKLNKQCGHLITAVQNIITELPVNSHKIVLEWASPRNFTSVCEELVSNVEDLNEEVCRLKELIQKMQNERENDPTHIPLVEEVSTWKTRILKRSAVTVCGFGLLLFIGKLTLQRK
Assay: co-IP; proteins co-expressed in 293T cells; lysis buffer 50 mM Tris pH7.6, 300 mM NaCl, 1% Triton X-100; IP with FLAG affinity beads, Western blot

Protein sequences, listed by entry. Tags and fused reporters are not part of them.
UniProt Q9JMB7: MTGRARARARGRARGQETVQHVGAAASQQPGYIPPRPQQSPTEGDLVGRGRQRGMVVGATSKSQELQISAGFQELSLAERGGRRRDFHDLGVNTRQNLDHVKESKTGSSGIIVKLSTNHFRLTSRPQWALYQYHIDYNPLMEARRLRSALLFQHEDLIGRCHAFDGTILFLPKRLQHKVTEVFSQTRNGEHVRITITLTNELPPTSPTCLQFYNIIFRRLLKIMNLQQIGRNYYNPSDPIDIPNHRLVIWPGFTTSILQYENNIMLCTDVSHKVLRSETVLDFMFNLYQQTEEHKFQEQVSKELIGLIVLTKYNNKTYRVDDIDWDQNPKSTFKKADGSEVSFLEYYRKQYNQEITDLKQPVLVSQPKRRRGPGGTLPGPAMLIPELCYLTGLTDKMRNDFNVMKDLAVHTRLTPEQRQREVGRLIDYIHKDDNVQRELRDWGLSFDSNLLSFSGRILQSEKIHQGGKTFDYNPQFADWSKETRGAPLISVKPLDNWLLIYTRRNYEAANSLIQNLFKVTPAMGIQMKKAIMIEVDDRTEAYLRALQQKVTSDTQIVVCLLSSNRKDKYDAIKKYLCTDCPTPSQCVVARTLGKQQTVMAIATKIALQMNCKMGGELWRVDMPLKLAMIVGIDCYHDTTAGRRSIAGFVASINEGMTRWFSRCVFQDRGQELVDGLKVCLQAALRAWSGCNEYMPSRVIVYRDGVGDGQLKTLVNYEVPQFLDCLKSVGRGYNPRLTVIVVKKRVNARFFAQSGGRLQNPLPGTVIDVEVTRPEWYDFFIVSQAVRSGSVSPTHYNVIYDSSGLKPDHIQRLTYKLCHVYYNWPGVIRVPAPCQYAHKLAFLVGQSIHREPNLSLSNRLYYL

With “FLAG-tagged MIWI (from UniProt Q9JMB7 1-862)” the binding was “no binding”.

Source: article PMC12507516
